The assay has as its target SARS-CoV-2 NSP9, 2xStrep-tagged (SARS-CoV-2) (UniProt P0DTD1). As to the kind of experiment: co-IP.

By UniProt entry, the sequences of proteins in these tests, tags left out.
UniProt P37198: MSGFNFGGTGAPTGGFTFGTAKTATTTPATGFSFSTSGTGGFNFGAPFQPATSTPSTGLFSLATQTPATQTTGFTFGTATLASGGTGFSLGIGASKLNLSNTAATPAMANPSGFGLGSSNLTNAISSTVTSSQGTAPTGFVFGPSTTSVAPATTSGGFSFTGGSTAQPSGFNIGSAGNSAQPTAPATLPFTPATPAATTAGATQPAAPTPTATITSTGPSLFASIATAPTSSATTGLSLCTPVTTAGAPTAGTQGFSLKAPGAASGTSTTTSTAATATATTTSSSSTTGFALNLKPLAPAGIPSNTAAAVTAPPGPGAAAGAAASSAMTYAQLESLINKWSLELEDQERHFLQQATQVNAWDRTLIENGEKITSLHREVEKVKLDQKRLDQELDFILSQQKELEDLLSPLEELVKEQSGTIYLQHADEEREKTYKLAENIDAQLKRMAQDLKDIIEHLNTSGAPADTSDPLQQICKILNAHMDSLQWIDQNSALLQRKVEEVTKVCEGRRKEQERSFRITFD

Results are given in words; binding and its absence hold for the method and conditions named. Binding seen in cells or lysates may run through a third protein. Some results given as binding are weak or reduced against the parent protein; the word gives no strength.

Take NUP62 (from UniProt P37198 1-522): the binding result is reported as “binds”.

(Values after article PMC8936114.)
